Consider 29 molecules from publication PMC4521966.

Amino acid sequences for entries named in this document (tags omitted).
UniProt P53396: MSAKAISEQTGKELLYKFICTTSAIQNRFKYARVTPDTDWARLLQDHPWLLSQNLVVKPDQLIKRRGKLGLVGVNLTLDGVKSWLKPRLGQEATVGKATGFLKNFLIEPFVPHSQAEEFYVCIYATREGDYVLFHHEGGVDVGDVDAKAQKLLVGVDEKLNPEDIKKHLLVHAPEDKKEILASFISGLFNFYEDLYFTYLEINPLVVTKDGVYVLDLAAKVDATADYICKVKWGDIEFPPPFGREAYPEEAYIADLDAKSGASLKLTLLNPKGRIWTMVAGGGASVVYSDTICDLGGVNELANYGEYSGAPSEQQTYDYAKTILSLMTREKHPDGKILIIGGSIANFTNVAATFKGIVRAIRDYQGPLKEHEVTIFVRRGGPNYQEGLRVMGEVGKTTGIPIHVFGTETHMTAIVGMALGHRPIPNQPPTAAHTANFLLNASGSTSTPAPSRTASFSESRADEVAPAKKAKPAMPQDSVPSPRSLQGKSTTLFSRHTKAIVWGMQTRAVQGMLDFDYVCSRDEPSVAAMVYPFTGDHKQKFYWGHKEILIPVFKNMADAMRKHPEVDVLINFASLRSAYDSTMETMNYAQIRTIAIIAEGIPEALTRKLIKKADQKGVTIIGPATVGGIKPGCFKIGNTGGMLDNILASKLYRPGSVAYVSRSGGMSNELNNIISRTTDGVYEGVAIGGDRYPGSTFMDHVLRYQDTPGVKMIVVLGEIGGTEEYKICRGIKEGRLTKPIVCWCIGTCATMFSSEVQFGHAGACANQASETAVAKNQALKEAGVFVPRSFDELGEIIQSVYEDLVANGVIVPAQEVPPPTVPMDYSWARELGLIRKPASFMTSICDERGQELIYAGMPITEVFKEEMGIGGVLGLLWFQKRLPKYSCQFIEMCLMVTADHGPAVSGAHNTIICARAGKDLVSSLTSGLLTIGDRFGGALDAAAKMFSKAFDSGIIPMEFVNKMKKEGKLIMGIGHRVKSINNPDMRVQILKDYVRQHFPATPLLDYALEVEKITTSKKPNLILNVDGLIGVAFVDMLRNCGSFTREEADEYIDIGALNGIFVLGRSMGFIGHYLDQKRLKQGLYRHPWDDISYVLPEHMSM
UniProt Q00610: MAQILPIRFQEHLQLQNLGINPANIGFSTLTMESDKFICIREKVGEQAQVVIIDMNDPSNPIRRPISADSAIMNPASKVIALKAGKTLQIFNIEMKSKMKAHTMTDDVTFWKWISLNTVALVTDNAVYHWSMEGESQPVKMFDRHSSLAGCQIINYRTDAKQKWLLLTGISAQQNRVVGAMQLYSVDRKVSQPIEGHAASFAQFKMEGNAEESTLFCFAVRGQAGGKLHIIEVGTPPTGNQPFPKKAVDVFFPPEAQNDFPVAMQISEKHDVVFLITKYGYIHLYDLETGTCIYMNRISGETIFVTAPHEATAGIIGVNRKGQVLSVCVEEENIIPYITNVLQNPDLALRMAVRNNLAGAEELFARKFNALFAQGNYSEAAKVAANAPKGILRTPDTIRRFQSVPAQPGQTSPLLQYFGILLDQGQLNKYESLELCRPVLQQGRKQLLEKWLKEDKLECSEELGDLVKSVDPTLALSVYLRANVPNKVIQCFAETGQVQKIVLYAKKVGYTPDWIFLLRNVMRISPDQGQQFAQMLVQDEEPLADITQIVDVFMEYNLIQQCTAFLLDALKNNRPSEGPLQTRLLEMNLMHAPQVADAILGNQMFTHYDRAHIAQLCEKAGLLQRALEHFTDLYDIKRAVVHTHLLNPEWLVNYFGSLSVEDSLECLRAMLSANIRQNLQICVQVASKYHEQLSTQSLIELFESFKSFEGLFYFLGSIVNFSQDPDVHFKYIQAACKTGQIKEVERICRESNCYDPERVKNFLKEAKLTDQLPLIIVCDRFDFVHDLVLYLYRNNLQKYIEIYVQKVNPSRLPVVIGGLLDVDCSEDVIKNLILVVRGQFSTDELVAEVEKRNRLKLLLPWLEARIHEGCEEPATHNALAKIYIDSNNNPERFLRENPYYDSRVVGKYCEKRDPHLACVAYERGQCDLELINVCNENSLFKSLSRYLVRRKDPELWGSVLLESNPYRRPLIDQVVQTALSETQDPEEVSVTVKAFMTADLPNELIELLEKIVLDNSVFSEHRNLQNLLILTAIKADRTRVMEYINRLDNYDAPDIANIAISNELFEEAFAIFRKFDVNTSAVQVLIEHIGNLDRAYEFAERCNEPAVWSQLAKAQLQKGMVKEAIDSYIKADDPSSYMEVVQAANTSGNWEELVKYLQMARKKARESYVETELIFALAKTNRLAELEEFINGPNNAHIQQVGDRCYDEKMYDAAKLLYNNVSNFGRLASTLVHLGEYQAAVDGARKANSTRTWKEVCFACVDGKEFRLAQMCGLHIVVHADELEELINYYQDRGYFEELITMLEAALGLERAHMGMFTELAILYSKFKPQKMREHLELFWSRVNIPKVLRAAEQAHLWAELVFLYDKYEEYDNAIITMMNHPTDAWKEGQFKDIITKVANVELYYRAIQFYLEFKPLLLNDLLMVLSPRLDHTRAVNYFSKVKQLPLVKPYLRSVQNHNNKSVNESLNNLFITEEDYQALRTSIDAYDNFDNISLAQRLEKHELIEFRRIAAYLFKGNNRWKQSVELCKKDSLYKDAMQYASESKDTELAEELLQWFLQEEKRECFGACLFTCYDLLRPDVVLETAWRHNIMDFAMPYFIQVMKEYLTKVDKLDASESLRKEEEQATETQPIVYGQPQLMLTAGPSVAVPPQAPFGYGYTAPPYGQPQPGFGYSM
UniProt Q9P2J5: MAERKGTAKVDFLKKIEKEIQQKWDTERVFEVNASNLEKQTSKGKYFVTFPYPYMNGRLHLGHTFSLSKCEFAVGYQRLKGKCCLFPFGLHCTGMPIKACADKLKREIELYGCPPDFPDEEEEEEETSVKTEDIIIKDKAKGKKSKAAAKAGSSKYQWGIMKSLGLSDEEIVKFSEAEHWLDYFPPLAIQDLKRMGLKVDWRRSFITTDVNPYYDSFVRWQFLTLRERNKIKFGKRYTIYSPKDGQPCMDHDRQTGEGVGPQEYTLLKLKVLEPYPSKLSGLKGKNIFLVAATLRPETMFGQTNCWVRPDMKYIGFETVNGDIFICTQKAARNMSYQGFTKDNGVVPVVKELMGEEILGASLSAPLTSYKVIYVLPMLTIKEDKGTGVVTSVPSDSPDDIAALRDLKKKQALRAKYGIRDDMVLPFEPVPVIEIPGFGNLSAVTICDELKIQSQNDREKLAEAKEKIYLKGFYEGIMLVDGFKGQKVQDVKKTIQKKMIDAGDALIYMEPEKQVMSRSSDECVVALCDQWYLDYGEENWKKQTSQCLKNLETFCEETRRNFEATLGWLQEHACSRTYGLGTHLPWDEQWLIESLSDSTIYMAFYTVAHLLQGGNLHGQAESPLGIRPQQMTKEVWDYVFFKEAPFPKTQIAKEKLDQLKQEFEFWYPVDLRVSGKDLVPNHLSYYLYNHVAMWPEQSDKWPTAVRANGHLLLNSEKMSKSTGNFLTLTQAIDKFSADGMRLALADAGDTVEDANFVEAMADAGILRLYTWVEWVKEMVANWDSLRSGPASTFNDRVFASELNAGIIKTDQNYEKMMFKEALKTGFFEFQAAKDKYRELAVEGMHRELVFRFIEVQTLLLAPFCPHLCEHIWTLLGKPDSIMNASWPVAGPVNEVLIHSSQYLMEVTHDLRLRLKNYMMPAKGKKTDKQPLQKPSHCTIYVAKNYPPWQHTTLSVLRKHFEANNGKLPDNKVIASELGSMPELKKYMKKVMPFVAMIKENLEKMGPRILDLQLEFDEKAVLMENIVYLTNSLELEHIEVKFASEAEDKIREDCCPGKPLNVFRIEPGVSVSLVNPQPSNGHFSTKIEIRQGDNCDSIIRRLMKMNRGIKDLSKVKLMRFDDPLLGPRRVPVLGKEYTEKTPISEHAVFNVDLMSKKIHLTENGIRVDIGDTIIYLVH
UniProt O75533: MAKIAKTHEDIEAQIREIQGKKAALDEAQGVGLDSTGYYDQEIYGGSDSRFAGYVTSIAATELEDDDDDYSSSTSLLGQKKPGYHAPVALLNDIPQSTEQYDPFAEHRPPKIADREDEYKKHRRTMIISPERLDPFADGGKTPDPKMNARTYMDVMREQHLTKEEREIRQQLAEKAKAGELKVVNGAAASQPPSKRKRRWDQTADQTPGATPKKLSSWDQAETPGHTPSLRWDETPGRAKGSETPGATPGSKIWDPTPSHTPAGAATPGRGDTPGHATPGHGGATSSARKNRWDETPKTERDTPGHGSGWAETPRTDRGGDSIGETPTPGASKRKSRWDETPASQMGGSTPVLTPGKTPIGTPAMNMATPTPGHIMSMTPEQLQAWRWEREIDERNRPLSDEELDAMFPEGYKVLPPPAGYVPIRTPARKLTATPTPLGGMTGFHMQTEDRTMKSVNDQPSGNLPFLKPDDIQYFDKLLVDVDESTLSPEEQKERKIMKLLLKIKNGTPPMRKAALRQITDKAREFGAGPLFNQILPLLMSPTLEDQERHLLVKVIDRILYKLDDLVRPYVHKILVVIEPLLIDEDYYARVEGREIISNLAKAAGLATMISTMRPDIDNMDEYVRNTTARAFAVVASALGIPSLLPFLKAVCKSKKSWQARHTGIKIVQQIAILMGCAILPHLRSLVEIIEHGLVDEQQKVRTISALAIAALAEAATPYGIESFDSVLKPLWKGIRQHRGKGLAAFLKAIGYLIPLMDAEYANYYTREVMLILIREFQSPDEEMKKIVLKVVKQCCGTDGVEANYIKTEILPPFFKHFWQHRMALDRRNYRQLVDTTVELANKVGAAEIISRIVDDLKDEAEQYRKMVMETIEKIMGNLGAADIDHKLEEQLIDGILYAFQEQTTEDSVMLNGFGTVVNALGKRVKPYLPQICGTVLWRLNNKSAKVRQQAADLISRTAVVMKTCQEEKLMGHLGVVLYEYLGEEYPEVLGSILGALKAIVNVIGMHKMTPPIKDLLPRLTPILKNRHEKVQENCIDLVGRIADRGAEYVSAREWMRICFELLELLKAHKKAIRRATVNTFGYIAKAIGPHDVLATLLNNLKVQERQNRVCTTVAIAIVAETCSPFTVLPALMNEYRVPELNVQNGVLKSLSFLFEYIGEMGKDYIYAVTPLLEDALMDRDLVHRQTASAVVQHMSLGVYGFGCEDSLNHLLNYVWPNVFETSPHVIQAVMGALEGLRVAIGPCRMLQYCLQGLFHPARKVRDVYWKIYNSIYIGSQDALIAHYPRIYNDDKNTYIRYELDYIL
UniProt Q13435: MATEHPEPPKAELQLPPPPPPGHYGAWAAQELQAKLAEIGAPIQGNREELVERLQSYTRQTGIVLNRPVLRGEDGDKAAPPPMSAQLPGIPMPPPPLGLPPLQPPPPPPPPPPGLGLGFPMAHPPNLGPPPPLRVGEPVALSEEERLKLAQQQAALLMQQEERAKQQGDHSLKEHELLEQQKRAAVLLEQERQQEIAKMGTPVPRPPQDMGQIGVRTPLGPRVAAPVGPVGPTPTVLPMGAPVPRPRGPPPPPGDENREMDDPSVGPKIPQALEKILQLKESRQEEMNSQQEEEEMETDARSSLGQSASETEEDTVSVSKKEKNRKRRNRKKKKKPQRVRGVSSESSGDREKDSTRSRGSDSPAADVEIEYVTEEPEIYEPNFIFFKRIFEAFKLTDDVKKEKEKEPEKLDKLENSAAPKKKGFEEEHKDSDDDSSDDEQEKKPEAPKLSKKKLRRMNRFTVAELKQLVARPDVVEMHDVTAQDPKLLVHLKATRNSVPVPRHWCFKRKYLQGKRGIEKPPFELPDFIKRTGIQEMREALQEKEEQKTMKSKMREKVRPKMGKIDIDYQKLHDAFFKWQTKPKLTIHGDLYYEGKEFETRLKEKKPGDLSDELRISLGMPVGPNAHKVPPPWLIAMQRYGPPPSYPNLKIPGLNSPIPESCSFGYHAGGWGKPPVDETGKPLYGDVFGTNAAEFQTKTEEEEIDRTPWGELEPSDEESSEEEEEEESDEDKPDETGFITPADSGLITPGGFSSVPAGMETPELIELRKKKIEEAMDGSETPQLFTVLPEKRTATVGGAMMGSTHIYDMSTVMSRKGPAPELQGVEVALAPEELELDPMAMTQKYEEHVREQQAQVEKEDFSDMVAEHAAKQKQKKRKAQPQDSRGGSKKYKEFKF

Results are given in words; binding and its absence hold for the method and conditions named. Binding seen in cells or lysates may run through a third protein. A yes stands for co-enrichment or nearness to the bait. Other partners may have been found. Tags and fused reporters may be left off the sequences shown.

T1: C-terminal FLAG-tagged mouse WDR72 (WD repeat-containing protein 72) (mouse) (UniProt D3YYM4)
T1 sequence: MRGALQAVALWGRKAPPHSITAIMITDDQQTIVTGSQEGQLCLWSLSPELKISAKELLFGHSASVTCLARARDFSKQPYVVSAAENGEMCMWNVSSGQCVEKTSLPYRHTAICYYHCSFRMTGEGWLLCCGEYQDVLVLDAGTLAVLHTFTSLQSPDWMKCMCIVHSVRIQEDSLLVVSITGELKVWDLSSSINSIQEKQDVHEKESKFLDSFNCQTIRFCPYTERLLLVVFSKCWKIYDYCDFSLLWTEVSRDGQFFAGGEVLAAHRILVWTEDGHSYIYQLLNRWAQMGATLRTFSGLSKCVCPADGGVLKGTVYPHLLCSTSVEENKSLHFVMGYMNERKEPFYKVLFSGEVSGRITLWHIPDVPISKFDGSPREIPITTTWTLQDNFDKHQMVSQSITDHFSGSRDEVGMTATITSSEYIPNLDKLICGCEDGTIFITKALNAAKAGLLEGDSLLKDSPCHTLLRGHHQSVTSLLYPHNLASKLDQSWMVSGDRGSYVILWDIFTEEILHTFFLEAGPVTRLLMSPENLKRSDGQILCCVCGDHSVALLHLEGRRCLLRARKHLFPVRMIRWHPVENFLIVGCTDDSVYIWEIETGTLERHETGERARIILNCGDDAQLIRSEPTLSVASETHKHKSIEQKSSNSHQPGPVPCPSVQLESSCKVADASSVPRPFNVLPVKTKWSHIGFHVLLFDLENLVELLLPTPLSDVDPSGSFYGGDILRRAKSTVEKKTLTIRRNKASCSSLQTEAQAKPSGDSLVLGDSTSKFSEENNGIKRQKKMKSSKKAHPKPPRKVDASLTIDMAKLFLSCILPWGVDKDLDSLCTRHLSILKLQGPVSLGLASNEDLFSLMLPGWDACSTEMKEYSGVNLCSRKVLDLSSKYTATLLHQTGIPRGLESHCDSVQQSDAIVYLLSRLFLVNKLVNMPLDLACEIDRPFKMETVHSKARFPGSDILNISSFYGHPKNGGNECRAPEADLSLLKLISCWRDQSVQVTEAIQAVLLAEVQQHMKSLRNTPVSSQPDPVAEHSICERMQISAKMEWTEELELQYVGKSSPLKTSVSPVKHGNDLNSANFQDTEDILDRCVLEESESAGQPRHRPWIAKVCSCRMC

B1: SNW1 (protein, UniProt Q13573 1-536)
chain: MALTSFLPAPTQLSQDQLEAEEKARSQRSRQTSLVSSRREPPPYGYRKGWIPRLLEDFGDGGAFPEIHVAQYPLDMGRKKKMSNALAIQVDSEGKIKYDAIARQGQSKDKVIYSKYTDLVPKEVMNADDPDLQRPDEEAIKEITEKTRVALEKSVSQKVAAAMPVRAADKLAPAQYIRYTPSQQGVAFNSGAKQRVIRMVEMQKDPMEPPRFKINKKIPRGPPSPPAPVMHSPSRKMTVKEQQEWKIPPCISNWKNAKGYTIPLDKRLAADGRGLQTVHINENFAKLAEALYIADRKAREAVEMRAQVERKMAQKEKEKHEEKLREMAQKARERRAGIKTHVEKEDGEARERDEIRHDRRKERQHDRNLSRAAPDKRSKLQRNENRDISEVIALGVPNPRTSNEVQYDQRLFNQSKGMDSGFAGGEDEIYNVYDQAWRGGKDMAQSIYRPSKNLDKDMYGDDLEARIKTNRFVPDKEFSGSDRRQRGREGPVQFEEDPFGLDKFLEEAKQHGGSKRPSDSSRPKEHEHEGKKRRKE
B2: PRPF6 (protein, UniProt O94906 1-941)
chain: MNKKKKPFLGMPAPLGYVPGLGRGATGFTTRSDIGPARDANDPVDDRHAPPGKRTVGDQMKKNQAADDDDEDLNDTNYDEFNGYAGSLFSSGPYEKDDEEADAIYAALDKRMDERRKERREQREKEEIEKYRMERPKIQQQFSDLKRKLAEVTEEEWLSIPEVGDARNKRQRNPRYEKLTPVPDSFFAKHLQTGENHTSVDPRQTQFGGLNTPYPGGLNTPYPGGMTPGLMTPGTGELDMRKIGQARNTLMDMRLSQVSDSVSGQTVVDPKGYLTDLNSMIPTHGGDINDIKKARLLLKSVRETNPHHPPAWIASARLEEVTGKLQVARNLIMKGTEMCPKSEDVWLEAARLQPGDTAKAVVAQAVRHLPQSVRIYIRAAELETDIRAKKRVLRKALEHVPNSVRLWKAAVELEEPEDARIMLSRAVECCPTSVELWLALARLETYENARKVLNKARENIPTDRHIWITAAKLEEANGNTQMVEKIIDRAITSLRANGVEINREQWIQDAEECDRAGSVATCQAVMRAVIGIGIEEEDRKHTWMEDADSCVAHNALECARAIYAYALQVFPSKKSVWLRAAYFEKNHGTRESLEALLQRAVAHCPKAEVLWLMGAKSKWLAGDVPAARSILALAFQANPNSEEIWLAAVKLESENDEYERARRLLAKARSSAPTARVFMKSVKLEWVQDNIRAAQDLCEEALRHYEDFPKLWMMKGQIEEQKEMMEKAREAYNQGLKKCPHSTPLWLLLSRLEEKIGQLTRARAILEKSRLKNPKNPGLWLESVRLEYRAGLKNIANTLMAKALQECPNSGILWSEAIFLEARPQRRTKSVDALKKCEHDPHVLLAVAKLFWSQRKITKAREWFHRTVKIDSDLGDAWAFFYKFELQHGTEEQQEEVRKRCESAEPRHGELWCAVSKDIANWQKKIGDILRLVAGRIKNTF
B3: HNRNPM (protein, UniProt P52272 1-730)
chain: MAAGVEAAAEVAATEIKMEEESGAPGVPSGNGAPGPKGEGERPAQNEKRKEKNIKRGGNRFEPYANPTKRYRAFITNIPFDVKWQSLKDLVKEKVGEVTYVELLMDAEGKSRGCAVVEFKMEESMKKAAEVLNKHSLSGRPLKVKEDPDGEHARRAMQKVMATTGGMGMGPGGPGMITIPPSILNNPNIPNEIIHALQAGRLGSTVFVANLDYKVGWKKLKEVFSMAGVVVRADILEDKDGKSRGIGTVTFEQSIEAVQAISMFNGQLLFDRPMHVKMDERALPKGDFFPPERPQQLPHGLGGIGMGLGPGGQPIDANHLNKGIGMGNIGPAGMGMEGIGFGINKMGGMEGPFGGGMENMGRFGSGMNMGRINEILSNALKRGEIIAKQGGGGGGGSVPGIERMGPGIDRLGGAGMERMGAGLGHGMDRVGSEIERMGLVMDRMGSVERMGSGIERMGPLGLDHMASSIERMGQTMERIGSGVERMGAGMGFGLERMAAPIDRVGQTIERMGSGVERMGPAIERMGLSMERMVPAGMGAGLERMGPVMDRMATGLERMGANNLERMGLERMGANSLERMGLERMGANSLERMGPAMGPALGAGIERMGLAMGGGGGASFDRAIEMERGNFGGSFAGSFGGAGGHAPGVARKACQIFVRNLPFDFTWKMLKDKFNECGHVLYADIKMENGKSKGCGVVKFESPEVAERACRMMNGMKLSGREIDVRIDRNA
B4: SART1 (protein, UniProt O43290 1-800)
chain: MGSSKKHRGEKEAAGTTAAAGTGGATEQPPRHREHKKHKHRSGGSGGSGGERRKRSRERGGERGSGRRGAEAEARSSTHGRERSQAEPSERRVKREKRDDGYEAAASSKTSSGDASSLSIEETNKLRAKLGLKPLEVNAIKKEAGTKEEPVTADVINPMALRQREELREKLAAAKEKRLLNQKLGKIKTLGEDDPWLDDTAAWIERSRQLQKEKDLAEKRAKLLEEMDQEFGVSTLVEEEFGQRRQDLYSARDLQGLTVEHAIDSFREGETMILTLKDKGVLQEEEDVLVNVNLVDKERAEKNVELRKKKPDYLPYAEDESVDDLAQQKPRSILSKYDEELEGERPHSFRLEQGGTADGLRERELEEIRAKLRLQAQSLSTVGPRLASEYLTPEEMVTFKKTKRRVKKIRKKEKEVVVRADDLLPLGDQTQDGDFGSRLRGRGRRRVSEVEEEKEPVPQPLPSDDTRVENMDISDEEEGGAPPPGSPQVLEEDEAELELQKQLEKGRRLRQLQQLQQLRDSGEKVVEIVKKLESRQRGWEEDEDPERKGAIVFNATSEFCRTLGEIPTYGLAGNREEQEELMDFERDEERSANGGSESDGEENIGWSTVNLDEEKQQQDFSASSTTILDEEPIVNRGLAAALLLCQNKGLLETTVQKVARVKAPNKSLPSAVYCIEDKMAIDDKYSRREEYRGFTQDFKEKDGYKPDVKIEYVDETGRKLTPKEAFRQLSHRFHGKGSGKMKTERRMKKLDEEALLKKMSSSDTPLGTVALLQEKQKAQKTPYIVLSGSGKSMNANTITK

One experiment deals with T1, C-terminal FLAG-tagged mouse WDR72 (WD repeat-containing protein 72) (mouse). In words: affinity purification with mass spectrometry; C-terminal FLAG-tagged mouse WDR72 overexpressed in HEK293; NP40 lysate; anti-FLAG antibody on protein A Dynabeads, 30 min at room temperature, washed twice; six CBB-stained bands cut from the SDS-PAGE gel, trypsin, LC-MS/MS.
Consider ACLY (from UniProt P53396 1-1101), for which the binding result was “binds”.
On to AP2A1 (from UniProt O95782 1-977), for which the binding entry was “binds”.
On the same count and under the same terms, for AP2B1 (from UniProt P63010 1-937) the value was “binds”; for CDC5L (from UniProt Q99459 1-802), “binds”; for CLTC (from UniProt Q00610 1-1675), “binds”.
The same measure, in the same setting: for CNOT1 (from UniProt A5YKK6 1-2376) the value was “binds”; for DDX5 (from UniProt P17844 1-614), “binds”.
On to EPRS (from UniProt P07814 1-1512), for which the binding result is given as “binds”.
Still for that read-out and setting: the entry for HSPA1A (from UniProt P0DMV8 1-641) is “binds”.
For the molecule HSPA1L (from UniProt P34931 1-641), the binding entry is given as “binds”.
Take HSPA5 (from UniProt P11021 19-654): the binding result is recorded as “binds”.
For HSPA6 (from UniProt P17066 1-643), the binding result is “binds”.
With HSPA8 (from UniProt P11142 1-646), the binding entry was “binds”.
As to HSPA9 (from UniProt P38646 47-679), the binding entry is listed as “binds”.
As for KARS (from UniProt Q15046 1-597), the binding entry is on record as “binds”.
Consider LARS (from UniProt Q9P2J5 1-1176), for which the binding entry is “binds”.
With PRKDC (from UniProt P78527 1-4128), the binding result is “binds”.
Regarding RAD50 (from UniProt Q92878 1-1312), the binding entry is reported as “binds”.
With SF3B1 (from UniProt O75533 1-1304), the binding result is “binds”.
As for SF3B2 (from UniProt Q13435 1-895), the binding entry is on record as “binds”.
For SF3B3 (from UniProt Q15393 1-1217), the binding result was “binds”.
For the molecule SNRNP200 (from UniProt O75643 1-2136), the binding result is reported as “binds”.
Turning to “UBA1 (ubiquitin-like modifier activating enzyme 1) (from UniProt P22314 1-1058)”, the binding result is given as “binds”.
For the molecule XRCC6 (from UniProt P12956 1-609), the binding entry is listed as “binds”.
For the molecule XRN1 (from UniProt Q8IZH2 1-1706), the binding result is “binds”.

A further experiment shares this target. The description is as above. The source holds these as a separate data set.
On to B1, for which the binding result is “binds”.
As to B2, the binding result is recorded as “binds”.
Regarding B3, the binding entry is listed as “binds”.
As for B4, the binding entry is “binds”.
